The values below come from PMC12711663.

The chains behind the UniProt entries cited, without tags or fusion partners.
UniProt P42224: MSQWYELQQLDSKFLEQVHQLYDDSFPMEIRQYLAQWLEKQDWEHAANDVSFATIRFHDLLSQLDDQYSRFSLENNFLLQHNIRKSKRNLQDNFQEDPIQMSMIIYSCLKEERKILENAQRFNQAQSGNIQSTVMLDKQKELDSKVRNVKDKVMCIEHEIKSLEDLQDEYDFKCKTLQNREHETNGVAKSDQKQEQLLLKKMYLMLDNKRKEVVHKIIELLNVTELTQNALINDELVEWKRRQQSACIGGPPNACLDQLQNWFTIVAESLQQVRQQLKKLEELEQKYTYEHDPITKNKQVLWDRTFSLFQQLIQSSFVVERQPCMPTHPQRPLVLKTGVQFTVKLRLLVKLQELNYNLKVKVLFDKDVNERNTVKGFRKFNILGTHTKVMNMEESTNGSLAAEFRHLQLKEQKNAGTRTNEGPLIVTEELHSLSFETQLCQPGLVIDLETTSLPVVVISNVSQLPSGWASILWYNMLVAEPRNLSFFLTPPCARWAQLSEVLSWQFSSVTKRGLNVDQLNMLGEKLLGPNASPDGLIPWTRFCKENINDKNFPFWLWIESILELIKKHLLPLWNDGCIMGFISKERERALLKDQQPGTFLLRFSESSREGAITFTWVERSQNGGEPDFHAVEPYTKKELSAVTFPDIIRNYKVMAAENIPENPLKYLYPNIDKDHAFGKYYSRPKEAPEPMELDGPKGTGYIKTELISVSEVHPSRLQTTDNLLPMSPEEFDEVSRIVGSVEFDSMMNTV
UniProt Q92830: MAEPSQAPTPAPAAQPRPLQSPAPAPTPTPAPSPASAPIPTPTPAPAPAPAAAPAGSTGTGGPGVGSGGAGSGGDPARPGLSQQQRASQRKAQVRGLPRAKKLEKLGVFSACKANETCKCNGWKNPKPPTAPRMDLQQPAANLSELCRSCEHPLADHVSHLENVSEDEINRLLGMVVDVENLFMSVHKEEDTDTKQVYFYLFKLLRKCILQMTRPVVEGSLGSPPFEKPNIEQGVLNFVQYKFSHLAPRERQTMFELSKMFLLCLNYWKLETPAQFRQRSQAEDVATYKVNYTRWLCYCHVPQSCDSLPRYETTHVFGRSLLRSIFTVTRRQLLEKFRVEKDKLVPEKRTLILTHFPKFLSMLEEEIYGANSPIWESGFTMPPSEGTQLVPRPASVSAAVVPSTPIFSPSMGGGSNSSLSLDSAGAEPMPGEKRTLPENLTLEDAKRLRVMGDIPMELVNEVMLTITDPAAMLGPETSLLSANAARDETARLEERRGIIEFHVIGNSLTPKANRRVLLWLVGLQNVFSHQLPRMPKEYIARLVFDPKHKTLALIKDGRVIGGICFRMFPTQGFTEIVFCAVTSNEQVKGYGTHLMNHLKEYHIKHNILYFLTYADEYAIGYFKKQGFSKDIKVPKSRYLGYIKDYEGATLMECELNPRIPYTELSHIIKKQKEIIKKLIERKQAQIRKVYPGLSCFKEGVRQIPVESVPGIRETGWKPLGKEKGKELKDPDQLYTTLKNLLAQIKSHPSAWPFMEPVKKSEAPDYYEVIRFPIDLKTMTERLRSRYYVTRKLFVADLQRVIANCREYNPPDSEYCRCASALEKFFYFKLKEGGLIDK
UniProt Q92831: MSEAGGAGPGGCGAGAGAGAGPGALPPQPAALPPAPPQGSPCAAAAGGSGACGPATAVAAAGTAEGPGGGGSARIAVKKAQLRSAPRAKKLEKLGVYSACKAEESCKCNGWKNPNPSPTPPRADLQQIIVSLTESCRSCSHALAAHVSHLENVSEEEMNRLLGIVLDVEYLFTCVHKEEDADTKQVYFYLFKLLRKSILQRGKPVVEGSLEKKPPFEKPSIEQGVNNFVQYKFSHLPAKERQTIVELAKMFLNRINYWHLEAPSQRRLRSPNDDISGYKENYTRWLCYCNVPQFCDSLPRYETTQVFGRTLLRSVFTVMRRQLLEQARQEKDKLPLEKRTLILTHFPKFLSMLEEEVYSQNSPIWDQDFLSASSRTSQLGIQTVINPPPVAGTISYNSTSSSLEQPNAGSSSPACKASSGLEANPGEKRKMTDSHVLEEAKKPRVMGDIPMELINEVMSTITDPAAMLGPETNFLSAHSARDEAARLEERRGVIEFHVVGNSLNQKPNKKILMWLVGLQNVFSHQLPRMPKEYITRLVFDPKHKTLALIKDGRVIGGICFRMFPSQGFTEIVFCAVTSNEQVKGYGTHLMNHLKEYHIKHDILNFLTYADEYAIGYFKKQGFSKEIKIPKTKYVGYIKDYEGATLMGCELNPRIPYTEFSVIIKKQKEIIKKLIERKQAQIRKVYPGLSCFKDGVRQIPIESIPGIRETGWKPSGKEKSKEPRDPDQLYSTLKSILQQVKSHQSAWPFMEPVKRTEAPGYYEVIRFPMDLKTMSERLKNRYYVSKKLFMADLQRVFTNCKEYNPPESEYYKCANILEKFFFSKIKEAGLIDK

These are yes or no findings as the source states them, for the method shown. Binding seen in cells or lysates may run through a third protein. Some entries that bind do so weakly or less than the wild type.

Assay [1] deals with STAT1 (wild-type, reconstituted in cetuximab-resistant cells) (human) (UniProt P42224). Kind of assay: co-IP; lysates of CAL-27-Ctx^R-STAT1 and OECM-1-Ctx^R-STAT1 cells treated with MG132 (10 μM) for 16 h; Co-IP buffer 150 mM NaCl, 1% NP-40, 1 mM EDTA, 5% glycerol, 50 mM Tris-HCl pH 7.5, 4°C; western blot.
For another assay, the target named is endogenous STAT1 (UniProt P42224). Kind of assay: co-IP; endogenous STAT1 and PCAF (Figure S6H); cells and bait not given.

Turning to “GCN5 (from UniProt Q92830 1-837) (enzyme)”, in assay [1], the binding entry is “binds”. With “PCAF (from UniProt Q92831 1-832) (enzyme)”, the binding entry (in assay [1]; in the assay with endogenous STAT1) was “binds” in each case.
